Measured values reported in the supplement of paper PMC6078165.

Test system: BT20
Experiment: relative JC-1 red fluorescence (viability) vs pre-drug, coculture with fibroblast (fraction); higher = more viable cancer cells
Procedure: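 JC-1 labelled TNBC cells cocultured 1:1 (1,500 cells each) with CellTrace Violet stained primary or stromal fibroblasts in 384-well plates in FluoroBrite medium, treated with one of 42 anticancer drugs at 0.1, 1, 10 or 100 uM. JC-1 red fluorescence (mitochondrial integrity in cancer cells only) was read by plate reader every 8 h for 72 h. Values are normalised to each well's pre-drug value. The stock of one drug was tenfold lower, so its dose labels may be too high.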

C[C@]12CC[C@@H]3c4ccc(O)cc4C[C@@H](CCCCCCCCC[S+]([O-])CCCC(F)(F)C(F)(F)F)[C@H]3[C@@H]1CC[C@@H]2O (stereo partly drawn) [Fulvestrant]
relative JC-1 red fluorescence
Conditions	8 h	16 h	24 h	32 h	40 h	48 h	56 h	64 h	72 h
0.1 µM, coculture fibroblast: C12385	0.9001	0.833	0.7715	0.713	0.661	0.627	0.607	0.584	0.569
0.1 µM, coculture fibroblast: H6013	0.976	0.859	0.784	0.75	0.687	0.6636	0.6416	0.6125	0.5857
0.1 µM, coculture fibroblast: H6019	0.852	0.8	0.767	0.712	0.674	0.659	0.627	0.606	0.593
0.1 µM, coculture fibroblast: H6076	0.984	0.889	0.8336	0.807	0.792	0.773	0.775	0.765	0.758
0.1 µM, coculture fibroblast: H6231	0.817	0.91	0.804	0.739	0.691	0.641	0.61	0.584	0.554
0.1 µM, coculture fibroblast: HADF	0.822	0.9313	0.849	0.832	0.791	0.74	0.708	0.68	0.644
0.1 µM, coculture fibroblast: HCFa	0.959	0.88	0.841	0.8	0.759	0.723	0.697	0.677	0.631
0.1 µM, coculture fibroblast: HCPF	0.748	0.922	0.836	0.79	0.751	0.697	0.6501	0.626	0.579
0.1 µM, coculture fibroblast: HHSteC	0.941	0.8505	0.824	0.749	0.688	0.653	0.614	0.586	0.544
0.1 µM, coculture fibroblast: HMF	0.886	0.882	0.7706	0.711	0.67	0.629	0.599	0.57	0.544
0.1 µM, coculture fibroblast: HPFa	0.9453	0.863	0.859	0.77	0.729	0.67	0.638	0.597	0.536
0.1 µM, coculture fibroblast: HUF	0.9104	0.8328	0.784	0.696	0.642	0.603	0.573	0.55	0.534
0.1 µM, coculture fibroblast: Hs5	0.737	0.9146	0.824	0.7717	0.7273	0.6877	0.651	0.607	0.563
0.1 µM, coculture fibroblast: Hs27A	0.8441	0.835	0.849	0.858	0.909	0.903	0.917	0.978	0.934
0.1 µM, coculture fibroblast: Hs343T	0.835	0.88	0.775	0.7197	0.654	0.615	0.562	0.532	0.503
0.1 µM, coculture fibroblast: WS1	0.8743	0.8015	0.7361	0.661	0.602	0.573	0.537	0.516	0.503
1 µM, coculture fibroblast: C12385	0.851	0.79	0.7667	0.71	0.664	0.648	0.631	0.613	0.594
1 µM, coculture fibroblast: H6013	0.924	0.904	0.893	0.863	0.853	0.849	0.853	0.838	0.819
1 µM, coculture fibroblast: H6019	0.841	0.782	0.789	0.743	0.704	0.692	0.657	0.635	0.612
1 µM, coculture fibroblast: H6076	0.909	0.886	0.843	0.825	0.8233	0.791	0.801	0.8	0.791
1 µM, coculture fibroblast: H6231	0.968	0.8643	0.799	0.745	0.711	0.67	0.658	0.63	0.613
1 µM, coculture fibroblast: HADF	0.95679	0.906	0.85	0.817	0.787	0.751	0.732	0.712	0.678
1 µM, coculture fibroblast: HCFa	0.944	0.912	0.886	0.856	0.837	0.826	0.809	0.794	0.76
1 µM, coculture fibroblast: HCPF	0.884	0.917	0.839	0.792	0.754	0.712	0.693	0.66	0.631
1 µM, coculture fibroblast: HHSteC	0.9029	0.858	0.8337	0.7669	0.7116	0.6913	0.6622	0.6461	0.61399
1 µM, coculture fibroblast: HMF	0.9634	0.86	0.774	0.7298	0.6954	0.645	0.621	0.607	0.577
1 µM, coculture fibroblast: HPFa	0.8919	0.878	0.928	0.872	0.856	0.814	0.782	0.737	0.681
1 µM, coculture fibroblast: HUF	0.9274	0.835	0.799	0.723	0.677	0.645	0.63	0.611	0.597
1 µM, coculture fibroblast: Hs5	0.894	0.851	0.8184	0.7807	0.769	0.749	0.734	0.724	0.69
1 µM, coculture fibroblast: Hs27A	0.832	0.838	0.938	0.941	0.915	0.899	0.884	0.858	0.812
1 µM, coculture fibroblast: Hs343T	0.85	0.8937	0.823	0.7659	0.7312	0.6908	0.6632	0.643	0.618
1 µM, coculture fibroblast: WS1	0.851	0.7724	0.745	0.677	0.62	0.598	0.572	0.549	0.536

Values are relative to the signal before dosing, not to a vehicle control; the signal also falls without drug.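 Labels refer to human fibroblasts, largely primary: uterine (C12385, HUF), lung (H6013), bone (Hs27A), adrenal (HADF), skin (WS1), plus mammary HMF and breast cancer-associated Hs343T. Cancer lines are basal-like or mesenchymal-like triple-negative breast cancer. The paper counts as hits responses shifting over 3x the replicate standard deviation. The tissue of the other fibroblasts is not given here.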
